Data source: PubChem BioAssay AID1224830 (NIAID, 2016)
The deposit covers about 18,000 reagents; below is a random part of them. About 2,900 of them (16%) count as active. 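Calls are made per well; low scores hint the gene aids the LPS response, high scores that it dampens it.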 Repeated entries: four replicate wells of each siRNA pool. No sequences are given here.

Aim: 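Regulators of TLR4 signalling towards TNF-alpha in macrophage-like cells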 (primary screen)
Cells: human THP-1 monocytic leukaemia cells, TNF dual-luciferase reporter clone, PMA-differentiated to macrophage-like cells
Knock-down reagent: siRNA pool against human genes, 50 nM
Timing: LPS for 4 h, given about 3 days after siRNA transfection
Conditions: bacterial LPS (TLR4 ligand), 10 ng/ml
Measured: 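Ratio of firefly to renilla light, scaled to the plate median and expressed as a robust z-score per replicate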
Direction: TNF reporter robust z-score: higher = stronger TNF reporter response to LPS
Call rule: 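a well is active when its z-score exceeds 2.8 or falls below -1.5; control wells carry no call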

no.	target	TNF reporter robust z-score	call
1	WDR12 (WD repeat domain 12)	0.42	inactive
2	WDR12 (WD repeat domain 12)	1.57	inactive
3	WDR12 (WD repeat domain 12)	0.39	inactive
4	WDR12 (WD repeat domain 12)	0.28	inactive
5	TSPAN13 (tetraspanin 13)	0.59	inactive
6	TSPAN13 (tetraspanin 13)	-0.09	inactive
7	TSPAN13 (tetraspanin 13)	0.84	inactive
8	TSPAN13 (tetraspanin 13)	-0.69	inactive
9	NEURL1 (neuralized E3 ubiquitin protein ligase 1)	-1.46	inactive
10	NEURL1 (neuralized E3 ubiquitin protein ligase 1)	3.55	active
11	NEURL1 (neuralized E3 ubiquitin protein ligase 1)	-0.09	inactive
12	NEURL1 (neuralized E3 ubiquitin protein ligase 1)	0.06	inactive
13	VTN (vitronectin)	-0.86	inactive
14	VTN (vitronectin)	-0.2	inactive
15	VTN (vitronectin)	-0.82	inactive
16	VTN (vitronectin)	-0.32	inactive

Entries above with an active call, once more:
target	TNF reporter robust z-score	call
NEURL1 (neuralized E3 ubiquitin protein ligase 1)	3.55	active

The list goes on.
no.	target	TNF reporter robust z-score	call
17	GIPR (gastric inhibitory polypeptide receptor)	-0.57	inactive
18	GIPR (gastric inhibitory polypeptide receptor)	0.25	inactive
19	GIPR (gastric inhibitory polypeptide receptor)	-0.37	inactive
20	GIPR (gastric inhibitory polypeptide receptor)	-0.31	inactive
21	SYAP1 (synapse associated protein 1)	-0.41	inactive
22	SYAP1 (synapse associated protein 1)	0.95	inactive
23	SYAP1 (synapse associated protein 1)	1.3	inactive
24	SYAP1 (synapse associated protein 1)	0.05	inactive
25	MED29 (mediator complex subunit 29)	0.48	inactive
26	MED29 (mediator complex subunit 29)	1.2	inactive
27	MED29 (mediator complex subunit 29)	0.5	inactive
28	MED29 (mediator complex subunit 29)	0.44	inactive
29	CFLAR (CASP8 and FADD like apoptosis regulator)	-1.72	active
30	CFLAR (CASP8 and FADD like apoptosis regulator)	-1.4	inactive
31	CFLAR (CASP8 and FADD like apoptosis regulator)	-1.81	active
32	CFLAR (CASP8 and FADD like apoptosis regulator)	-1.71	active
33	PROSER2 (proline and serine rich 2)	-1.05	inactive
34	PROSER2 (proline and serine rich 2)	-0.51	inactive
35	PROSER2 (proline and serine rich 2)	-1.14	inactive
36	TBC1D9 (TBC1 domain family member 9)	0.13	inactive
37	TBC1D9 (TBC1 domain family member 9)	0.04	inactive
38	TBC1D9 (TBC1 domain family member 9)	-0.81	inactive
39	TBC1D9 (TBC1 domain family member 9)	-0.04	inactive
40	SCHIP1 (schwannomin interacting protein 1)	-0.75	inactive
41	SCHIP1 (schwannomin interacting protein 1)	-0.23	inactive
42	SCHIP1 (schwannomin interacting protein 1)	-1.38	inactive
43	SCHIP1 (schwannomin interacting protein 1)	-0.69	inactive
44	EFNA4 (ephrin A4)	0.22	inactive
45	EFNA4 (ephrin A4)	0.11	inactive
46	EFNA4 (ephrin A4)	-0.17	inactive
47	EFNA4 (ephrin A4)	-0.38	inactive
